Results are given in words; binding and its absence hold for the method and conditions named. Some entries that bind do so weakly or less than the wild type.
Key:
[1] = biological target: T1, human ErbB3-Fc (R&D Systems) (human, UniProt P21860 20-643); assay: ELISA on plate-coated human ErbB3-Fc, detection biotinylated anti-VpreB and streptavidin HRP (Example 48)
T1 construct: Bought protein; also called wild-type ErbB3-Fc fusion; immobilized ErbB3; not shown: Fc part of the bought fusion protein; not described

Amino acid sequences for entries named in this document (tags omitted). A change or cut given only in a name is not applied to a line headed by its entry.
UniProt P21860: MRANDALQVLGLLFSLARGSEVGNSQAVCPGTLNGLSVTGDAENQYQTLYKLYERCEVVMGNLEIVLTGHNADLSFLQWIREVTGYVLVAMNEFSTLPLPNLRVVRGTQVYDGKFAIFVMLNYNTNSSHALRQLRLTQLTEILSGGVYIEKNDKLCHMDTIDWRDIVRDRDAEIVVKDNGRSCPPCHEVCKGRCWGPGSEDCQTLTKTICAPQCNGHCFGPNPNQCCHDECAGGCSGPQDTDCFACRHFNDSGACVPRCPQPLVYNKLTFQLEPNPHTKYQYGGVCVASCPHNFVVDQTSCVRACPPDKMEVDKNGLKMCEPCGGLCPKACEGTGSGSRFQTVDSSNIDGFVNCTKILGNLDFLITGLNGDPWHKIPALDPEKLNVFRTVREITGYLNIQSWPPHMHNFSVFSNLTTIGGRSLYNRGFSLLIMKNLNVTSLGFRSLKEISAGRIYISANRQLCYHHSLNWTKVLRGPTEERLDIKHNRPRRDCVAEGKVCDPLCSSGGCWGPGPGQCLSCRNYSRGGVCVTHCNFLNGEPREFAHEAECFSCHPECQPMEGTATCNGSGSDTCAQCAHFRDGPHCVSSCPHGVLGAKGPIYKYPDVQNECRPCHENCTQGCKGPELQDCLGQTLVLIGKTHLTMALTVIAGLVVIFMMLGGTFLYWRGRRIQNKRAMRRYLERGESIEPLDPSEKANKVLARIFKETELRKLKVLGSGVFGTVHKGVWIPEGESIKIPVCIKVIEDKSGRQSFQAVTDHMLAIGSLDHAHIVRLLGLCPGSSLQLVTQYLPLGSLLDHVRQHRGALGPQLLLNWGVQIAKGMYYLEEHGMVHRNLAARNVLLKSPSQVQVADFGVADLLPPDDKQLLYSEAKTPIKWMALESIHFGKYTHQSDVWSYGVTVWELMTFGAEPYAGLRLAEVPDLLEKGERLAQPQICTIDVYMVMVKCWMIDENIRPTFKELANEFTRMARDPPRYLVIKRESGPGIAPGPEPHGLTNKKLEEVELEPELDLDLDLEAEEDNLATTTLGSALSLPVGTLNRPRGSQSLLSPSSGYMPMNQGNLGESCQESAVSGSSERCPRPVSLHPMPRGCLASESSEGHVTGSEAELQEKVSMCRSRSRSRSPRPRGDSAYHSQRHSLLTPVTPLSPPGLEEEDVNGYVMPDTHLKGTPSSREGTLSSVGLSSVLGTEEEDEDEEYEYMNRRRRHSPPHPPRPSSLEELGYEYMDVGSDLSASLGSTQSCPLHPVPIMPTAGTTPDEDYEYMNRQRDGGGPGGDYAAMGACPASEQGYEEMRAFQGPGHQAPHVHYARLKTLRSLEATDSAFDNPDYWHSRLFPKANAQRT
UniProt Q61526: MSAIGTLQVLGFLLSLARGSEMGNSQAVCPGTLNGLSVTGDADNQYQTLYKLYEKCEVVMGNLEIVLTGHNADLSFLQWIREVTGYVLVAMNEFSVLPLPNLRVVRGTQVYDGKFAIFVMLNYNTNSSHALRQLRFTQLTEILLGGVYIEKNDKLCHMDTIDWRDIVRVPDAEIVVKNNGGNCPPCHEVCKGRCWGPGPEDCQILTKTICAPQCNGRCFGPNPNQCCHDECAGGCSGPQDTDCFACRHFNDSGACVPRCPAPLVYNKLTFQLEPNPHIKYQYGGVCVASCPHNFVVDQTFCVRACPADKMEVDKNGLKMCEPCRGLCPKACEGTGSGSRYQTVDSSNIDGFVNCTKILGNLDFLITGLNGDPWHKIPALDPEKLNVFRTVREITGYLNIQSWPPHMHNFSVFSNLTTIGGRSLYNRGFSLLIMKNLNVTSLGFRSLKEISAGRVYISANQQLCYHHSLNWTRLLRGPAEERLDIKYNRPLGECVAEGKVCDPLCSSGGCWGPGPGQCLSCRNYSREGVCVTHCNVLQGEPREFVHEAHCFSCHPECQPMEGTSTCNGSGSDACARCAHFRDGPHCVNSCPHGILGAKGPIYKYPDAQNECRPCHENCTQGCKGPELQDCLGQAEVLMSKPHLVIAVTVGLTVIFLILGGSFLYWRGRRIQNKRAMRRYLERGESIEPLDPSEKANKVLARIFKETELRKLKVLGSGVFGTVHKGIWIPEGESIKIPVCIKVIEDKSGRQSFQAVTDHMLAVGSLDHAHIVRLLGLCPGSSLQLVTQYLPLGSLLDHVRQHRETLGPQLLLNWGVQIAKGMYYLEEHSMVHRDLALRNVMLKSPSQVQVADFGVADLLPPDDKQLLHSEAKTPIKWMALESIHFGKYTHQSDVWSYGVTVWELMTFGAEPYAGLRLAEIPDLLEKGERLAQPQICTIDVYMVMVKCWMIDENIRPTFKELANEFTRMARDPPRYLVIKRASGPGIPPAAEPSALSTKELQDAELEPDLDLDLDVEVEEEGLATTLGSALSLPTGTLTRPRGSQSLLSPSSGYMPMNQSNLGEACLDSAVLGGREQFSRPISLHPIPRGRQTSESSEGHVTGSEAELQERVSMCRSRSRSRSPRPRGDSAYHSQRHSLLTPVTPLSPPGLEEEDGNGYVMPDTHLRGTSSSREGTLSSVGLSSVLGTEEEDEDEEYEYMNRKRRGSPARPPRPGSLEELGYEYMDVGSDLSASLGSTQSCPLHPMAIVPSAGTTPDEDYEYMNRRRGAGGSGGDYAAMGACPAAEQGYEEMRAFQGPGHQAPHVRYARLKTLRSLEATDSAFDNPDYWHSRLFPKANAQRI

[2] = biological target: human ErbB3 expressed on the surface of cells (BxPC-3 and other human tumor cell lines) (human) (UniProt P21860); assay: flow cytometry on BxPC-3 cells, biotinylated goat anti-human IgG and Alexa488 streptavidin, 7AAD-negative gate
[3] = biological target: T1, human ErbB3-Fc (R&D Systems); assay: competition ELISA on plate-coated ErbB3-Fc, biotinylated test article
[4] = biological target: human ErbB3 expressed on the surface of cells (BxPC-3 and other human tumor cell lines) (human) (UniProt P21860); assay: flow cytometry, SKBR3 cells (Example 52)
[5] = biological target: T1, human ErbB3-Fc (R&D Systems); assay: ELISA on ErbB3-Fc, biotinylated SgG detected with streptavidin HRP, curve without competitor
[6] = biological target: T1, human ErbB3-Fc (R&D Systems); assay: ELISA on plate-coated human ErbB3-Fc, detection biotinylated anti-VpreB and streptavidin HRP (Example 52)
Source text: ELISA plates were coated with human ErbB3-Fc, EGFR-Fc (ErbB1) or ErbB2-Fc. Various concentrations of the indicated anti-ErbB3 SBPs were then allowed to bind to the coated wells. Binding was detected using a biotinylated antibody that specifically recognizes VpreB, followed by streptavidin HRP. Detection used a colorimetric HRP substrate.

[7] = biological target: T1, human ErbB3-Fc (R&D Systems); assay: ELISA on coated wild-type ErbB3-Fc, 10 nM SgG, biotinylated anti-VpreB and streptavidin HRP
[8] = biological target: T1, human ErbB3-Fc (R&D Systems); assay: ELISA on plate-coated human ErbB3-Fc with 1.85 nM NRG1-beta 1 extracellular domain added before the SBP (+ NRG), detection biotinylated anti-VpreB (Example 43); axis labelled log [Sab] nM
Source text: (§1) The resulting bound SgGs were detected using a biotinylated anti-VpreB, followed by streptavidin HRP colorimetric detection.

[9] = biological target: human ErbB3 expressed on the surface of cells (BxPC-3 and other human tumor cell lines) (human) (UniProt P21860); assay: flow cytometry, MCF-7 cells (Example 52)
[10] = biological target: T1, human ErbB3-Fc (R&D Systems); assay: ELISA on plate-coated ErbB3-Fc with or without NRG
[11] = biological target: human ErbB3 expressed on the surface of cells (BxPC-3 and other human tumor cell lines) (human) (UniProt P21860); assay: flow cytometry, BxPC-3 cells (Example 52)
[12] = biological target: human ErbB3 expressed on the surface of cells (BxPC-3 and other human tumor cell lines) (human) (UniProt P21860); assay: flow cytometry, A431 cells (Example 52)
[13] = biological target: T1, human ErbB3-Fc (R&D Systems); assay: competition ELISA on human ErbB3-Fc; blocked ligand NRG1-beta 1 extracellular domain at 0.26 ug/ml, detected with biotinylated anti-NRG1-beta 1
[14] = biological target: T1, human ErbB3-Fc (R&D Systems); assay: ELISA on plate-coated human ErbB3-Fc
[15] = biological target: T1, human ErbB3-Fc (R&D Systems); assay: ELISA on plate-coated human ErbB3-Fc with 1.85 nM NRG1-beta 1 ECD pre-bound or absent, anti-VpreB detection
[16] = biological target: T1, human ErbB3-Fc (R&D Systems); assay: ELISA on plate-coated human ErbB3-Fc without NRG, detection biotinylated anti-VpreB and streptavidin HRP (Example 43); axis labelled log [Sab] nM, text speaks of SgGs
Source text: as §1

[17] = biological target: 2-3-3-3 chimeric ErbB2/ErbB3 Fc fusion (domain I from ErbB2, domains II-IV from ErbB3); assay: ELISA on coated chimera 2-3-3-3, 10 nM SgG, biotinylated anti-VpreB and streptavidin HRP
[18] = biological target: human ErbB3 expressed on the surface of cells (BxPC-3 and other human tumor cell lines) (human) (UniProt P21860); assay: flow cytometry on BxPC-3 cells
[19] = biological target: 3-3-3-2 chimeric ErbB2/ErbB3 Fc fusion (domain IV from ErbB2, domains I-III from ErbB3); assay: ELISA, 10 nM SgG on plate-coated chimera, against wild-type ErbB3-Fc
[20] = biological target: 2-3-3-3 chimeric ErbB2/ErbB3 Fc fusion (domain I from ErbB2, domains II-IV from ErbB3); assay: as above
[21] = biological target: 3-3-2-3 chimeric ErbB2/ErbB3 Fc fusion (domain III from ErbB2, domains I, II and IV from ErbB3); assay: as above
[22] = biological target: human ErbB3 expressed on the surface of cells (BxPC-3 and other human tumor cell lines) (human) (UniProt P21860); assay: flow cytometry, BT474 cells (Example 52)
[23] = biological target: 3-3-2-3 chimeric ErbB2/ErbB3 Fc fusion (domain III from ErbB2, domains I, II and IV from ErbB3); assay: ELISA on coated chimera 3-3-2-3, 10 nM SgG, biotinylated anti-VpreB and streptavidin HRP
[24] = biological target: T2, murine ErbB3-Fc (R&D Systems) (mouse, UniProt Q61526 20-641); assay: ELISA on plate-coated murine ErbB3-Fc
T2 construct: Bought protein; also called mouse ErbB3; not shown: Fc part of the bought fusion protein; not described

Measured: binding

B1: 2817-C01 surroglobulin (SgG) (other)
VH: EVQLLESGGGLVQPGGSLRLSCAASGFTFSTYAMNWVRQAPGKGLEWVALISSGGSYKYYADSVKGRFTISRDNSKNTLYLQMNSLRAEDTAVYYCAKDNFILLNSWFDYWGQGTLVTVSS
light: QPVLHQPPAMSSALGTTIRLTCTLRNDHDIGVYSVYWYQQRPGHPPRFLLRYFSQSDKSQGPQVPPRFSGSKDVARNRGYLSISELQPEDEAMYYCAMGARSSVTHVFGSGTQLTVLSQPKATPSVTLFPPSSEELQANKATLVCLMNDFYPGILTVTWKADGTPITQGVEMTTPSKQSNNKYAASSYLSLTPEQWRSRRSYSCQVMHEGSTVEKTVAPAECS
notes: also called anti-ErbB3 SgG
not listed: [24]
binds: all other assays above

B2: 2716-F05 surroglobulin (SgG) (other)
VH: EVQLLESGGGLVQPGGSLRLSCAASGFTFSNYWMHWVRQAPGKGLEWVALISGGGGNTYYADSVKGRFTISRDNSKNTLYLQMNSLRAEDTAVYYCAKDNEKNLYTWLDYWGQGTLVTVSS
light: QPVLHQPPAMSSALGTTIRLTCTLRNDHDIGVYSVYWYQQRPGHPPRFLLRYFSQSDKSQGPQVPPRFSGSKDVARNRGYLSISELQPEDEAMYYCAMGARSSVTHVFGSGTQLTVLSQPKATPSVTLFPPSSEELQANKATLVCLMNDFYPGILTVTWKADGTPITQGVEMTTPSKQSNNKYAASSYLSLTPEQWRSRRSYSCQVMHEGSTVEKTVAPAECS
notes: also called anti-ErbB3 SgG
not listed: [4] | [9] | [11] | [12] | [22]
binds: all other assays above
